Values of other authors as cited in publication PMC4965013, “Open Source Drug Discovery with the Malaria Box Compound Collection for Neglected Diseases and Beyond” (PLoS Pathogens, 2016).
Several values for one entry are separate records, joined by “and”; a condition that tells them apart may be missing. Equal entries are not always repeated.

Tested on: T. cruzi Tulahuen
Conditions: Run 1 and Run 2; ref [88]; read-out: T. cruzi IC50 positive control; cited from earlier work

O=C(Cn1ccnc1[N+](=O)[O-])NCc1ccccc1 [Benznidazole, reference compound]
IC50: 3.22 µM and 3.06 µM
